# Publication PMC12040169 (PLOS Biology, 2025)
# This is one part of the list.
# Test system: T1, CTL2-GFP (C. trachomatis L2/434/Bu, GFP-expressing)
# T1 construct: L2/434/Bu, GFP-expressing
# Set-up: species or system HeLa; Intracellular C. trachomatis growth in HeLa cells, bulk GFP fluorescence relative to DMSO
# Settings: bulk GFP, single well; 28.5 h, 10 µM; inhibitor
row,SMILES,% of control remaining
1,O=C(CSc1ccc2nnc(-c3ccccn3)n2n1)N1CCCCC1 [CBK287621],128.187%
2,CN(CC1(C)COC1)C(=O)c1cn2cc(Cl)ccc2n1 [CBK281721],90.6322%
3,CC(Nc1ccc2[nH]c(=O)[nH]c2c1)C(=O)N1CCN(c2ccccc2)CC1 (stereo not shown) [CBK296748],132.702%
4,O=C(c1ccc(O)cc1)c1ccc(C(=O)O)c(C(=O)O)c1 [CBK261075],100%
5,CCc1nn(C)cc1CN1CCOC(c2nc(C(C)(C)C)cs2)C1 (stereo not shown) [CBK304513],128.001%
6,O=C(Nc1ccc([N+](=O)[O-])cc1)Nc1ccc(N2CCOCC2)c2nonc12 [CBK266885],125.534%
7,CC(C)NC(=O)Nc1ccc(C(=O)N(CC#N)C2CC2)cc1 [CBK306120],133.529%
8,CN(C)c1ccc2cccc(O)c2n1 [CBK149729],86.1676%
9,CC1CCCCN1CCNC(=O)c1ccc(Cn2c(=S)[nH]c3ccccc3c2=O)cc1 (stereo not shown) [CBK265674],80.4088%
10,O=C(NC1CCc2ccccc21)c1cnc(-c2ccc(Cl)cc2)c(-c2ccc(O)cc2)c1 (stereo not shown) [CBK036629],91.9762%
11,O=C(O)CSc1nnc2n(-c3ccccc3)c3ccccc3n12 [CBK268557],121.2%
12,CCOC(=O)C1=C(C)NC(=O)NC1c1ccc(-c2cccc([N+](=O)[O-])c2)o1 (stereo not shown) [CBK072102],100%
13,COc1ccccc1-c1nccnc1OCc1cccc(OC)c1OC [CBK106825],98.3812%
14,CCC(CO)Nc1cncc(-c2cccc(O)c2)n1 (stereo not shown) [CBK037777],109.257%
15,O=C(O)CNS(=O)(=O)c1cc(Cl)sc1Cl [CBK034452],137.113%
16,Cc1cc(C(=O)Nc2ccc(S(=O)(=O)Nc3onc(C)c3C)cc2)no1 [CBK268166],34.8194%
17,Cc1c(C(C)NC(=O)Nc2ccc(F)cc2F)cnn1C (stereo not shown) [CBK266986],85.0986%
18,C=Cn1ncc(CN2CCc3[nH]c4ccc(OCC)cc4c3C2)c1C [CBK282574],116.772%
19,CC(O)c1cccc(NC(=O)CCC(=O)O)c1 (stereo not shown) [CBK264691],111.611%
20,CCNC(=O)C1=C(C(=O)NCC)N2C(=NC(C)(C)c3ccccc32)S1 [CBK010172],138.276%
21,C[C@H](c1ccccc1)N1C(=O)[C@@H]2CN(C(=O)CC(C)(C)CC(=O)O)CCN2C1=O [CBK289639],82.7321%
22,Cn1ccc(C2CCCCCN2C(=O)Cc2cccs2)n1 (stereo not shown) [CBK283047],105.954%
23,Cc1cc(OCCC#N)cc(C)c1Cl [CBK015872],125.392%
24,Cc1nn(C)c(N2CCNCC2)c1NC(=O)c1ccccc1 [CBK050257T],121.265%
25,CC(C)C[C@@H]1N[C@H](C(=O)NC2CC2)Cc2cn(Cc3nccn3C)c3cccc1c23 [CBK289423],114.931%
26,CC(=O)N(C)c1ccc(NC(=O)/C=C/C(=O)O)cc1 [CBK287162],116.047%
27,COC(=O)Cn1c(-c2ccc(OC)cc2)cc2cccnc21 [CBK282268],120.084%

row,SMILES,% of control remaining
1,O=C(Cc1nnc(-c2ccncc2)o1)NCCC1=CCCCC1 [CBK288605],93.2599%
2,O=[N+]([O-])c1ccn(C2CC(O)C(CO)O2)c1 (stereo not shown) [CBK201229],101.312%
3,Nc1ncc(-c2cccc(F)c2)nc1NCC1CCOCC1 [CBK063860],130.592%
4,c1ccc2c(-c3cc(Nc4ccc5[nH]ccc5c4)ncn3)cccc2c1 [CBK037815],95.2427%
5,CCOC(=O)c1cnc2cc(C)ccn2c1=O [CBK086650],108.582%
6,C#CCOc1cc(Br)c(/C=C(/C#N)c2ccc([N+](=O)[O-])cc2)cc1OCC [CBK266617],96.0932%
7,CCc1ccc(NS(=O)(=O)c2cnn(CC)c2)cc1 [CBK270314],90.8547%
8,O=c1[nH]c(-c2cc(Cc3ccccc3Cl)ccc2O)nc2ccccc12 [CBK291220],128.725%
9,Cc1cc2ncc3c(n2n1)CC1CCC3N1Cc1ccc(F)c(F)c1 (stereo not shown) [CBK284378],104.784%
10,O=C(/C=C/c1ccccc1)ONC(=O)c1ccc(Cl)cc1 [CBK263702],86.0779%
11,Cc1cc(NS(=O)(=O)c2ccc(Nc3nc(-c4cccs4)cs3)cc2)no1 [CBK262504],15.739%
12,O=S(=O)(Nc1cccc(Cl)c1Cl)c1ccc(Cl)c(Cl)c1 [CBK017446],116.349%
13,O=C(CSc1nnnn1C1CC1)Nc1ccc(CN2CCOCC2)cc1 [CBK305857],116.339%
14,FC(F)(F)c1cccc(OCCOc2nccnc2N2CCNCC2)c1 [CBK014518G],94.883%
15,CCn1cc(C2CN(S(=O)(=O)c3cccc(C)c3Cl)CCO2)cn1 (stereo not shown) [CBK304226],124.016%
16,CC(=O)Nc1cccc(-n2nnnc2SCCCCCF)c1 [CBK306164],99.946%
17,N#Cc1ccnc(SCC(=O)Nc2ccc(CN3CCOCC3)cc2)c1 [CBK306010],110.551%
18,Cc1ccc(Oc2ncccc2NC(=O)CN2CCC(NC(=O)c3ccccc3)CC2)c2c1CCC2 [CBK074715],94.4266%
19,O=C1CC2(C(=O)N1Cc1ccccc1)C(=O)N(Cc1csc(-c3ccccc3)n1)c1ccccc12 (stereo not shown) [CBK075673],116.303%
20,O=S(=O)(Nc1ccc(Cc2ccncc2)cc1)N1CCCC1 [CBK268263],96.3277%
21,O=[N+]([O-])c1cccc(-c2cc(NCCc3ccccn3)ncn2)c1 [CBK091087],171.372%
22,O=c1ccc2cc(S(=O)(=O)Nc3ccc4[nH]ccc4c3)ccc2o1 [CBK062503],146.975%
23,Cc1nnc(N2C(=O)c3oc4ccc(Cl)cc4c(=O)c3C2c2cccc(OCc3ccccc3)c2)s1 (stereo not shown) [CBK266870],182.651%
24,O=C(CCN1C(=O)/C(=C\C=C\c2ccccc2)SC1=S)Nc1ccc(C(=O)O)cc1 [CBK264818],134.061%
25,CC(=O)Nc1cc(NC(C)=O)c(C)c(C(=O)O)c1 [CBK286623],127.717%
26,CC1CNCCC1n1nc(-c2cccs2)ccc1=O (stereo not shown) [CBK284221],131.267%
27,Cn1c(=O)c2c(ncn2CC(=O)Nc2ccccc2I)n(C)c1=O [CBK133275],124.837%

row,SMILES,% of control remaining
1,CC(=O)c1ccc(-c2cc(N3CCN(CCN4CCCC4)CC3)ncn2)s1 [CBK091169],242.621%
2,CC(C)Cc1nnc(-c2ccccc2Cl)n1CC1CC1 [CBK200097],170.245%
3,CC(C)(C)OC(=O)N1CCC(CNS(=O)(=O)c2ccc3c(c2)OCCO3)CC1 [CBK076971],156.352%
4,Fc1ccc(COc2cccc(CNCc3ccccn3)c2)cc1 [CBK269987C],115.99%
5,CC(C)(C)c1ccnc(N[C@H]2CO[C@H]3[C@@H]2OC[C@@H]3NC(=O)NCc2ccccc2)n1 [CBK289522],121.864%
6,O=C(O)C1CNC(=O)N1C(=O)OCc1ccccc1 (stereo not shown) [CBK057462],132.809%
7,Cc1ncsc1CCN(C)C(=O)Cn1nc(C)c2ccccc2c1=O [CBK306893],151.145%
8,O=[N+]([O-])c1ccc(CCNCC(O)COc2cccc3c2CCCC3)cc1 (stereo not shown) [CBK003083],95.5559%
9,Cc1nn(Cc2nnc(SCC(=O)C(C)(C)C)o2)c(C)c1Br [CBK005646],131.881%
10,NC(=O)C1(N2CCCCC2)CCN(C(=S)Nc2ccc(S(N)(=O)=O)cc2)CC1 [CBK265900],131.376%
11,CCCCS(=O)(=O)N1CCN(CCc2ccccc2)CC1 [CBK270316],136.237%
12,Cn1nnnc1SCc1nc(N)nc(Nc2ccccc2)n1 [CBK268092],87.8451%
13,CC(=O)N1CCN(C[C@@H]2C=C(C)[C@H](Cc3nnc(C)o3)C[C@H]2C(C)C)CC1 [CBK289219],89.7058%
14,Cc1ccc(C2=NN(C(=N)SC3CC(=O)N(c4ccc(C(=O)O)cc4)C3=O)C(c3ccc(Br)cc3)C2)cc1 (stereo not shown) [CBK263497],106.421%
15,O=C(c1ccccc1)c1cn[nH]c1-c1ccccc1O [CBK287970],126.904%
16,COCCN(Cc1cnn(C)c1)C(=O)c1ccc2oc(C)cc2c1 [CBK307059],117.155%
17,CCn1cc(CN(CCOC)C(=O)c2cc3c(Cl)cccc3[nH]2)cn1 [CBK306903],71.7703%
18,Cc1ccc(S(=O)(=O)Nc2ccsc2C(=O)N2CCOCC2)cc1[N+](=O)[O-] [CBK004612],110.05%
19,COc1ccc(CN2CCCN(c3cc(OC4CCCCC4)ncn3)CC2)cc1 [CBK083278T],168.429%
20,CCC(C)c1ccc(NC(=S)NCc2ccccn2)cc1 (stereo not shown) [CBK266966],144.454%
21,O=C(Nc1ccc(OC(F)(F)F)cc1)N1CCN(Cc2ccc3c(c2)OCO3)CC1 [CBK074754],103.661%
22,CCC(CC)C(=O)N1CCCC1c1nn(C)cc1-c1cc(C)no1 (stereo not shown) [CBK283452],156.994%
23,Brc1cccc(/C=N/N2CCN(Cc3cccc4ccccc34)CC2)c1 [CBK263011],114.993%
24,CCn1ncc(S(=O)(=O)N2CCCC(c3cccc(-c4cccc(OC)c4)n3)C2)c1C (stereo not shown) [CBK286155],131.616%
25,CN1CCN(c2nc3ccccn3c(=O)c2/C=C2\SC(=S)N(CCc3ccccc3)C2=O)CC1 [CBK263131],100%

# In a second layout: 3 of the compounds above.
row | SMILES | % of control remaining
10 | O=C(NC1CCc2ccccc21)c1cnc(-c2ccc(Cl)cc2)c(-c2ccc(O)cc2)c1 (stereo not shown) [CBK036629] | 91.9762%
11 | O=C(O)CSc1nnc2n(-c3ccccc3)c3ccccc3n12 [CBK268557] | 121.2%
12 | CCOC(=O)C1=C(C)NC(=O)NC1c1ccc(-c2cccc([N+](=O)[O-])c2)o1 (stereo not shown) [CBK072102] | 100%
